For at least one compound, name, drawing or mass did not settle the structure.
System: NMBR and GRPR
Assay: Bombesin infusion into the cisterna magna of rats after BBN-SAP ablation
Format: in vivo, rat

## CSCC[C@H](NC(=O)[C@H](CC(C)C)NC(=O)[C@H](Cc1cnc[nH]1)NC(=O)CNC(=O)[C@@H](NC(=O)[C@H](C)NC(=O)[C@H](Cc1c[nH]c2ccccc12)NC(=O)[C@H](CCC(N)=O)NC(=O)[C@H](CC(N)=O)NC(=O)CNC(=O)[C@H](CC(C)C)NC(=O)[C@H](CCCN=C(N)N)NC(=O)[C@H](CCC(N)=O)NC(=O)[C@@H]1CCC(=O)N1)C(C)C)C(N)=O [BBN, bombesin]
10 μg BBN into the cisterna magna of rats after BBN-SAP ablation
  sigh induction by exogenous BBN: Ablation prevented sigh induction
BBN infusion in rats after BBN-SAP ablation
  scratching and licking behavior: triggered intense scratching and licking
